For test [1], the target named is T1, myc-PLK4 (tetracycline-inducible transgene in U2OS T-REx cells) (human) (UniProt O00444).
T1 sequence: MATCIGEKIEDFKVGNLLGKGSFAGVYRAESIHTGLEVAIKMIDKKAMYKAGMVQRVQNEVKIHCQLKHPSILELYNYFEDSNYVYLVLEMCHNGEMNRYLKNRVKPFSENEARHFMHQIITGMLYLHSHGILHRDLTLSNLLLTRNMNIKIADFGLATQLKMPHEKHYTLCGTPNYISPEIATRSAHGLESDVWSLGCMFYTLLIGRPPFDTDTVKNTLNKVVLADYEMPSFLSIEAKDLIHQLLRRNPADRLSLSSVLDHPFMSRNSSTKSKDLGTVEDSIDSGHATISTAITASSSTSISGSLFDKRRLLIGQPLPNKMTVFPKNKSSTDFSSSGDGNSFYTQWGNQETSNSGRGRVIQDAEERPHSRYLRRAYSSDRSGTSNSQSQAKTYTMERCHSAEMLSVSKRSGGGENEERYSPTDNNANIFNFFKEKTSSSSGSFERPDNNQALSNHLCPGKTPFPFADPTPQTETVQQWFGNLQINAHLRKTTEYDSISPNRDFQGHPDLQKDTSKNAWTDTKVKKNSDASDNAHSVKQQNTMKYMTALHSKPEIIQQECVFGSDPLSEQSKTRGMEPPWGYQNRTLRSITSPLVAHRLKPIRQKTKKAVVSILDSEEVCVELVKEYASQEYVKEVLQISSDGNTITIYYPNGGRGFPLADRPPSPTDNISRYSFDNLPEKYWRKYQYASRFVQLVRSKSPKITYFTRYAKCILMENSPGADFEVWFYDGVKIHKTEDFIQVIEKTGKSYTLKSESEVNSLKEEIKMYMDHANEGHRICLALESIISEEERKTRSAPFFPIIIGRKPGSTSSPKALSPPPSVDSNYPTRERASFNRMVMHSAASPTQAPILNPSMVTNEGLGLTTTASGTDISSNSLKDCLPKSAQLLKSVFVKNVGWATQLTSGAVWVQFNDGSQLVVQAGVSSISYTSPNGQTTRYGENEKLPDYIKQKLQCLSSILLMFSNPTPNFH
The test is described as follows: co-IP; anti-myc immunoprecipitation from U2OS T-REx cells with tetracycline-induced myc-PLK4 (24 hr); endogenous partners detected by Western blot. In general terms: A western blot detects proteins with antibodies after separation by electrophoresis.

Chains of the proteins cited; added tags and fusions are not shown.
UniProt O94986: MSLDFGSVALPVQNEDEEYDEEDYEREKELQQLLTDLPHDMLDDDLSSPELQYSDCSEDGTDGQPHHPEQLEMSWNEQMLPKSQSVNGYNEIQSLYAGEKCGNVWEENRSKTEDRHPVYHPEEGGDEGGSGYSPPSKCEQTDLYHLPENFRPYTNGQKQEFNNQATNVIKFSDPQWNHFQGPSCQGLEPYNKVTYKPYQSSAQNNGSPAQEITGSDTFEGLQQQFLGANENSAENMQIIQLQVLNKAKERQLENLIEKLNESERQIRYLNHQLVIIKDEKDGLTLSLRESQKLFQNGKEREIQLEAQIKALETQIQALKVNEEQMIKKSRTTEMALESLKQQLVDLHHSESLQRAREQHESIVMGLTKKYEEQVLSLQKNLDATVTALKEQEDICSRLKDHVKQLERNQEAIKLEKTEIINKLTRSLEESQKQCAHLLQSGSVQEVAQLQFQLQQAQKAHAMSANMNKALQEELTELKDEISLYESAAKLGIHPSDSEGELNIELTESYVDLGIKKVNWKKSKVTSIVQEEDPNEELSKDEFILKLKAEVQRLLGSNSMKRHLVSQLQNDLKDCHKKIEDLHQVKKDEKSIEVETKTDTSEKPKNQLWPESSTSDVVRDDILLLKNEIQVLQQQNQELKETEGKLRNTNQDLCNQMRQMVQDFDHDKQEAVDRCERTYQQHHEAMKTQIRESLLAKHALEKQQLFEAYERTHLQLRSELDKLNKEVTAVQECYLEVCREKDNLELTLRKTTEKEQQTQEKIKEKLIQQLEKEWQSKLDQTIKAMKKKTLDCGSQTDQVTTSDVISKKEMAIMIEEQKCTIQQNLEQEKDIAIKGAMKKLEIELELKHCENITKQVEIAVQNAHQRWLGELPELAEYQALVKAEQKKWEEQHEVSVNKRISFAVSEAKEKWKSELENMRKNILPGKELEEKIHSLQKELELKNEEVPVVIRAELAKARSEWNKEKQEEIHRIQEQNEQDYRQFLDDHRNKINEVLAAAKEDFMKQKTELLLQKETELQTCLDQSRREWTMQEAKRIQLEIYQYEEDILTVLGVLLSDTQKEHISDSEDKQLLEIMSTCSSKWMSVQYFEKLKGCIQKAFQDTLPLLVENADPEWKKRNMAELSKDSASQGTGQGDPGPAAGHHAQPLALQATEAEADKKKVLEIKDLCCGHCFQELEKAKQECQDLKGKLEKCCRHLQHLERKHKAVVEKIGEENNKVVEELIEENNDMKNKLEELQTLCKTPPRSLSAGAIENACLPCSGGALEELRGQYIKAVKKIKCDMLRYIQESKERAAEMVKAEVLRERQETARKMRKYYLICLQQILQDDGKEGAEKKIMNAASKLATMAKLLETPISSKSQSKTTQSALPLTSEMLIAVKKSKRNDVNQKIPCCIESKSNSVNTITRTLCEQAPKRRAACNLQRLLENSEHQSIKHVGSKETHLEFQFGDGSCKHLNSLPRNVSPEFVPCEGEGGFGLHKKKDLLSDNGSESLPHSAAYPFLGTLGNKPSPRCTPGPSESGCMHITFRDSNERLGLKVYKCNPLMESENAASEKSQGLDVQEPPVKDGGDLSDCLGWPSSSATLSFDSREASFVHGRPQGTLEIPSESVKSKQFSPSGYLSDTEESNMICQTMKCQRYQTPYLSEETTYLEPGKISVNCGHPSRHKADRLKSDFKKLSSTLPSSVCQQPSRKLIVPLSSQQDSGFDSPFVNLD

Test [2] deals with T2, FLAG-tagged full-length STIL (human) (UniProt Q15468).
T2 sequence: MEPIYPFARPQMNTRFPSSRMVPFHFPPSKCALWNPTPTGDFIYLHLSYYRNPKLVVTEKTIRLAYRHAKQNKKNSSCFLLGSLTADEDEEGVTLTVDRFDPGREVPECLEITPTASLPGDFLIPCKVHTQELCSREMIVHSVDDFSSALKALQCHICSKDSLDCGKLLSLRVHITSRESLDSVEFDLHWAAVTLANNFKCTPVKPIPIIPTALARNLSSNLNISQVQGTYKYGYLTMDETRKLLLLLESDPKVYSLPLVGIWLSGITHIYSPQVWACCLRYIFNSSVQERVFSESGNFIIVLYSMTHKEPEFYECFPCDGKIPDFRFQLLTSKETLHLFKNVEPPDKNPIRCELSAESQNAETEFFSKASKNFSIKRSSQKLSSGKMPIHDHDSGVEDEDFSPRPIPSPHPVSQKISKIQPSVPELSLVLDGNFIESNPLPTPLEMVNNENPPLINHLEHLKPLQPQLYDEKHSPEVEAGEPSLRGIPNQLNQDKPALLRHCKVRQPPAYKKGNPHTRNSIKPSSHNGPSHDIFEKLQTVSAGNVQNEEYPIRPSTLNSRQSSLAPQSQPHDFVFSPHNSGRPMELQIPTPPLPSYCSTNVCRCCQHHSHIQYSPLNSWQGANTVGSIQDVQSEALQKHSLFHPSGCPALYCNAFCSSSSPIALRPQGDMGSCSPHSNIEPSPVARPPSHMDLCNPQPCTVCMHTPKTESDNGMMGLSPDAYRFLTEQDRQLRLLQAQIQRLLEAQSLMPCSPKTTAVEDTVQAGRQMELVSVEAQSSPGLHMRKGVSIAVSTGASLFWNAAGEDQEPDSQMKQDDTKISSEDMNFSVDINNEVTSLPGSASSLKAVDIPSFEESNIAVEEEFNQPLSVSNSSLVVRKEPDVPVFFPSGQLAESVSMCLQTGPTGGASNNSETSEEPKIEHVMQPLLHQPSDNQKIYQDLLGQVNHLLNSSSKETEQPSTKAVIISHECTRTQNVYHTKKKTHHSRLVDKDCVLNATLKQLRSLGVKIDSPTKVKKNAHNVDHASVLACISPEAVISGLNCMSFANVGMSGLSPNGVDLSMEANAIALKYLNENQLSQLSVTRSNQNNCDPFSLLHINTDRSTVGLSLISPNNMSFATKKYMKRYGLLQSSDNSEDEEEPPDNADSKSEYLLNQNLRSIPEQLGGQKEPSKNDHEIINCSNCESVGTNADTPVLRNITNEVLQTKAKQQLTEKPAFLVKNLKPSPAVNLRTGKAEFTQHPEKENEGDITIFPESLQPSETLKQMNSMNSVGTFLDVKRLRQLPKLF
In words: co-IP; STIL self-association: HEK293T cells co-expressing differently tagged STIL constructs for 24–36 hr; anti-myc or anti-FLAG immunoprecipitation; Western blot.

Results are given in words; binding and its absence hold for the method and conditions named. In cells and extracts the contact can be indirect. Some results given as binding are weak or reduced against the parent protein; the word gives no strength. Tags and fused reporters may be left off the sequences shown.

On to Cep152 (from UniProt O94986 1-1710), for which the binding entry in test [1] is on record as “binds”.

B1: FLAG-tagged full-length STIL (protein, UniProt Q15468 1-1287)
chain: MEPIYPFARPQMNTRFPSSRMVPFHFPPSKCALWNPTPTGDFIYLHLSYYRNPKLVVTEKTIRLAYRHAKQNKKNSSCFLLGSLTADEDEEGVTLTVDRFDPGREVPECLEITPTASLPGDFLIPCKVHTQELCSREMIVHSVDDFSSALKALQCHICSKDSLDCGKLLSLRVHITSRESLDSVEFDLHWAAVTLANNFKCTPVKPIPIIPTALARNLSSNLNISQVQGTYKYGYLTMDETRKLLLLLESDPKVYSLPLVGIWLSGITHIYSPQVWACCLRYIFNSSVQERVFSESGNFIIVLYSMTHKEPEFYECFPCDGKIPDFRFQLLTSKETLHLFKNVEPPDKNPIRCELSAESQNAETEFFSKASKNFSIKRSSQKLSSGKMPIHDHDSGVEDEDFSPRPIPSPHPVSQKISKIQPSVPELSLVLDGNFIESNPLPTPLEMVNNENPPLINHLEHLKPLQPQLYDEKHSPEVEAGEPSLRGIPNQLNQDKPALLRHCKVRQPPAYKKGNPHTRNSIKPSSHNGPSHDIFEKLQTVSAGNVQNEEYPIRPSTLNSRQSSLAPQSQPHDFVFSPHNSGRPMELQIPTPPLPSYCSTNVCRCCQHHSHIQYSPLNSWQGANTVGSIQDVQSEALQKHSLFHPSGCPALYCNAFCSSSSPIALRPQGDMGSCSPHSNIEPSPVARPPSHMDLCNPQPCTVCMHTPKTESDNGMMGLSPDAYRFLTEQDRQLRLLQAQIQRLLEAQSLMPCSPKTTAVEDTVQAGRQMELVSVEAQSSPGLHMRKGVSIAVSTGASLFWNAAGEDQEPDSQMKQDDTKISSEDMNFSVDINNEVTSLPGSASSLKAVDIPSFEESNIAVEEEFNQPLSVSNSSLVVRKEPDVPVFFPSGQLAESVSMCLQTGPTGGASNNSETSEEPKIEHVMQPLLHQPSDNQKIYQDLLGQVNHLLNSSSKETEQPSTKAVIISHECTRTQNVYHTKKKTHHSRLVDKDCVLNATLKQLRSLGVKIDSPTKVKKNAHNVDHASVLACISPEAVISGLNCMSFANVGMSGLSPNGVDLSMEANAIALKYLNENQLSQLSVTRSNQNNCDPFSLLHINTDRSTVGLSLISPNNMSFATKKYMKRYGLLQSSDNSEDEEEPPDNADSKSEYLLNQNLRSIPEQLGGQKEPSKNDHEIINCSNCESVGTNADTPVLRNITNEVLQTKAKQQLTEKPAFLVKNLKPSPAVNLRTGKAEFTQHPEKENEGDITIFPESLQPSETLKQMNSMNSVGTFLDVKRLRQLPKLF
Take B1: the binding entry in test [2] is reported as “binds”.

B2: STIL-ΔSTAN (STIL with the STAN domain removed) (protein, UniProt Q15468)
chain: MEPIYPFARPQMNTRFPSSRMVPFHFPPSKCALWNPTPTGDFIYLHLSYYRNPKLVVTEKTIRLAYRHAKQNKKNSSCFLLGSLTADEDEEGVTLTVDRFDPGREVPECLEITPTASLPGDFLIPCKVHTQELCSREMIVHSVDDFSSALKALQCHICSKDSLDCGKLLSLRVHITSRESLDSVEFDLHWAAVTLANNFKCTPVKPIPIIPTALARNLSSNLNISQVQGTYKYGYLTMDETRKLLLLLESDPKVYSLPLVGIWLSGITHIYSPQVWACCLRYIFNSSVQERVFSESGNFIIVLYSMTHKEPEFYECFPCDGKIPDFRFQLLTSKETLHLFKNVEPPDKNPIRCELSAESQNAETEFFSKASKNFSIKRSSQKLSSGKMPIHDHDSGVEDEDFSPRPIPSPHPVSQKISKIQPSVPELSLVLDGNFIESNPLPTPLEMVNNENPPLINHLEHLKPLQPQLYDEKHSPEVEAGEPSLRGIPNQLNQDKPALLRHCKVRQPPAYKKGNPHTRNSIKPSSHNGPSHDIFEKLQTVSAGNVQNEEYPIRPSTLNSRQSSLAPQSQPHDFVFSPHNSGRPMELQIPTPPLPSYCSTNVCRCCQHHSHIQYSPLNSWQGANTVGSIQDVQSEALQKHSLFHPSGCPALYCNAFCSSSSPIALRPQGDMGSCSPHSNIEPSPVARPPSHMDLCNPQPCTVCMHTPKTESDNGMMGLSPDAYRFLTEQDRQLRLLQAQIQRLLEAQSLMPCSPKTTAVEDTVQAGRQMELVSVEAQSSPGLHMRKGVSIAVSTGASLFWNAAGEDQEPDSQMKQDDTKISSEDMNFSVDINNEVTSLPGSASSLKAVDIPSFEESNIAVEEEFNQPLSVSNSSLVVRKEPDVPVFFPSGQLAESVSMCLQTGPTGGASNNSETSEEPKIEHVMQPLLHQPSDNQKIYQDLLGQVNHLLNSSSKETEQPSTKAVIISHECTRTQNVYHTKKKTHHSRLVDKDCVLNATLKQLRSLGVKIDSPTKVKKNAHNVDHASVLACISPEAVISGLNCMSFANVGMSGLSPNGVDLKSEYLLNQNLRSIPEQLGGQKEPSKNDHEIINCSNCESVGTNADTPVLRNITNEVLQTKAKQQLTEKPAFLVKNLKPSPAVNLRTGKAEFTQHPEKENEGDITIFPESLQPSETLKQMNSMNSVGTFLDVKRLRQLPKLF
For the molecule B2, the binding entry in test [2] was “binds”.

The values are drawn from publication PMC4530586, “STIL binding to Polo-box 3 of PLK4 regulates centriole duplication” (eLife, 2015).
